Data as given in PubChem BioAssay AID1508597 (Cure First, 2020).

- Assay: 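Survival screen with siRNA in ovarian cancer cells derived from patients, with or without rucaparib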 (primary screen)
- Cell system: human ovarian carcinoma lines grown from tumours: OCI-P5x (papillary serous) and OCI-C5x (clear cell)
- Reagent: siRNA pool against human genes, 1.25 pmol siRNA per well
- Timing: 72 h or 96 h, depending on the cell culture
- Challenge: rucaparib 20 µM (about IC30) or vehicle, present until read-out
- Rucaparib or vehicle: Rucaparib
- Cell line: OCI-P5x (serous)
- Measured: 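ATP luminescence measured at 72 or 96 h according to the culture, then normalised and expressed as percent viability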
- Scale: viability, normalised: higher = more viable cells remaining
- Call rule: 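Active when normalised viability falls below 80 percent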
- Meaning of the calls: active = viability under 80%; inactive = viability 80% or more
This is an unselected part of the about 2,100 reagents, in one setting of the screen. 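Calls flag viability under 80% in either arm, not effects specific to rucaparib; the reference for percent is not stated.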 Not stated in the record: the 100% reference.

The first 3 records, ahead of the listing:
| target | technical replicate | viability, normalised (%) | Outcome |
| --- | --- | --- | --- |
| MBD2 | 1 | 57.4 | active |
| MBD2 | 2 | 67 | active |
| MBD2 | 3 | 79 | active |

Main list, from the start:
| target | technical replicate | viability, normalised (%) | Outcome |
| --- | --- | --- | --- |
| MBD2 | 1 | 57.4 | active |
| MBD2 | 2 | 67 | active |
| MBD2 | 3 | 79 | active |
| ASCC3 | 1 | 65.2 | active |
| ASCC3 | 2 | 75.6 | active |
| ASCC3 | 3 | 70.5 | active |
| GATAD2A | 1 | 72 | active |
| GATAD2A | 2 | 66.2 | active |
| GATAD2A | 3 | 69.9 | active |
| SNRK | 1 | 66.3 | active |
| SNRK | 2 | 85.2 | inactive |
| SNRK | 3 | 63.2 | active |
| MYBL2 | 1 | 44.4 | active |
| MYBL2 | 2 | 49.8 | active |
| MYBL2 | 3 | 53.9 | active |
| KAT7 | 1 | 49.3 | active |
| KAT7 | 2 | 50.3 | active |
| KAT7 | 3 | 51 | active |
| YJU2B | 1 | 85.6 | inactive |
| YJU2B | 2 | 74.1 | active |
| YJU2B | 3 | 86.7 | inactive |
| KLF1 | 1 | 61.5 | active |
| KLF1 | 2 | 72.4 | active |
| KLF1 | 3 | 79.5 | active |
